In PMC5014220 (Angewandte Chemie (International Ed. in English), 2016):
Strings that start with PEPTIDE1 are HELM notation: dots part the residues, brackets hold end groups and non-standard residues.

Test: general procedure: solution-phase peptide synthesis; HATU / DIPEA
[1] = coupling step, HPLC (DAD) and LCMS traces
[2] = late stage modification step, HPLC (DAD) and LCMS traces

Substance | step yield (coupling step) | final HPLC purity [1] | step yield (late stage modification step) | final HPLC purity [2] | final LC-MS purity [2]
PEPTIDE1{[XBoc].F.[Xg4A].[XACBC].[Xg4F].[XACBC].L.[XOMe]}$$$$V2.0 | 78% | higher than 95% | – | – | –
PEPTIDE1{[XBoc].F.[Xg4A].[XACBC].[Xg4F].[XACBC].[Xg4L].[XOMe]}$$$$V2.0 | 84% | higher than 95% | – | – | –
PEPTIDE1{[XBoc].F.[Xg4A].[XACBC].[Xg4W].[XACBC].L.[XOMe]}$$$$V2.0 | 68% | higher than 96% | – | – | –
PEPTIDE1{[XBoc].F.[Xg4A].[XACBC].[Xg4W].[XACBC].[Xg4L].[XOMe]}$$$$V2.0 | 59% | higher than 98% | – | – | –
PEPTIDE1{[ac].F.[Xg4A].[XACBC].[Xg4F].[XACBC].L.[XOMe]}$$$$V2.0 | – | – | 48% | higher than 95% | –
PEPTIDE1{[ac].F.[Xg4A].[XACBC].[Xg4F].[XACBC].[Xg4L].[XOMe]}$$$$V2.0 | – | – | 37% | – | higher than 95%
PEPTIDE1{[ac].F.[Xg4A].[XACBC].[Xg4W].[XACBC].L.[XOMe]}$$$$V2.0 | – | – | 42% | higher than 95% | –
PEPTIDE1{[ac].F.[Xg4A].[XACBC].[Xg4W].[XACBC].[Xg4L].[XOMe]}$$$$V2.0 | – | – | 32% | higher than 95% | –
